# Measurements published in PubChem BioAssay AID504467 (National Center for Advancing Translational Sciences (NCATS), 2011).
# The whole screen tested about 330,000 compounds, of which about 7,700 (2.3%) were called active. Inconclusive means that the source gave no clear call. Such entries were picked first, then a sample of the others. Calls come from the whole dose curve; as a rule, active = well fitted inhibition curve with a large enough effect; inconclusive = small, poorly fitted or top-dose-only effect, or effect the other way; inactive = flat fitted curve, though single readings scatter. Where the call is inconclusive, the potency comes from a doubtful curve fit.
# Assay: qHTS screen for small molecules that inhibit ELG1-dependent DNA repair in human embryonic kidney (HEK293T) cells expressing luciferase-tagged ELG1; note: nearly all actives have a fitted effect of over 55% in size
# Details: HEK293T ELG1-luciferase reporter, luminescence, 16 h, DNA damage induced by 5-fluorouridine; activity change, negative = inhibition: at 46.1 µM (top of the series)
# Outline: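 Overnight (16 hr) co-exposure of 2,000 cells/well to 5-fluorouridine and compound at 37 °C preceded detection. Luciferase was quantified via ONE-Glo luminescence; loss of signal denotes inhibition.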
# % is set by controls: 0 for no effect and ±100 for the full control effect; potency is the fitted concentration of half-maximal effect.
SMILES,Potency,"activity change, negative = inhibition"
COc1ccc2c(=O)c(Oc3ccc(C(=O)O)cc3)c(C(F)(F)F)oc2c1,"inconclusive: 0.73 µM [activator, full curve]",–
CNC(=O)NC(=O)C(C)OC(=O)c1oc2ccccc2c1CSc1ccc(Cl)cc1 (centres undefined),–,inactive: -0.835%
Oc1ccc(/C=N/n2c3ccccc3c3ccccc32)cc1,–,inactive: -0.31%
Cc1ccc2nc(NCc3ccccc3)c(C=O)c(=O)n2c1,"inconclusive: 11.6 µM [activator, partial curve]",–
CCCC(=O)Nc1cc(OCC)c(NC(=O)NC2CCCCC2)cc1OCC,"inconclusive: 0.184 µM [activator, single point]",–
O=C1N[C@@H](Cc2c[nH]c3ccccc23)COC(=O)[C@H](Cc2ccc(F)cc2)C/C=C\C[C@@H]1CC(=O)N(CCO)Cc1ccccc1,active: 23.1 µM,–
O=C(CCS(=O)(=O)c1ccc(Br)cc1)NCc1ccco1,"inconclusive: 18.3 µM [activator, single point]",–
COc1ccc(S(=O)(=O)N2CN(Cc3ccco3)c3nc4ccccc4nc32)cc1,–,inactive: 3.7%
CC12CCC3c4ccc(O)cc4CCC3C1CC(O)C2O (centres undefined),"inconclusive: 29.1 µM [activator, single point]",–
Cc1c(C)n(CCCN(C)C)c2ncnc(Nc3ccc(F)cc3)c12,–,inactive: 20.1%
O=C1c2ccccc2C(=O)c2cc(S(=O)(=O)Nc3ccccc3)ccc21,–,inactive: -1.5%
Cc1cc(C)c2nc(N(CCCN(C)C)C(=O)c3ccc4c(c3)OCCO4)sc2c1,–,inactive: 15.7%
CCCCCC(=O)Nc1ccc(C(=O)COC(=O)c2ccccn2)cc1,"inconclusive: 23.1 µM [activator, single point]",–
c1ccc(-c2nnc(CN3CCCCC3)o2)cc1,"inconclusive: 25.9 µM [activator, single point]",–
CCN(CC)CCn1c2ccc(Cl)cc2c2nc(C)sc21,"inconclusive: 23.1 µM [inhibitor, single point]",–
CCCc1cc(=O)[nH]c(SC(C)C(=O)Nc2ccc3c(c2)OCCO3)n1 (centres undefined),"inconclusive: 23.1 µM [activator, partial curve]",–
CCOC(=O)c1cnn(-c2ccc(Cl)cc2)c1C1CCN(C(=O)OC(C)(C)C)CC1,"inconclusive: 25.9 µM [inhibitor, single point]",–
Cc1cc(Cl)ccc1OCCCC(=O)OCC(=O)c1c(N)n(C)c(=O)n(C)c1=O,–,inactive: 7.58%
O=c1oc2ccccc2cc1-c1csc(Nc2ccc(O)cc2)n1,"inconclusive: 23.1 µM [activator, single point]",–
Cc1ccc(-c2nnc(SCC(=O)N/N=C/c3c(C)nn(-c4ccccc4)c3C)n2-c2ccccc2)cc1,"inconclusive: 29.1 µM [inhibitor, single point]",–
Cc1ccc(NC(=O)COc2coc(CN3CCc4ccccc43)cc2=O)cc1Cl,–,inactive: 13.7%
COc1ccc(-n2nc(C(=O)NCC(=O)N3CCN(c4ccccc4OC)CC3)c3ccccc3c2=O)c(OC)c1,"inconclusive: 20.6 µM [activator, single point]",–
O=C(Cn1ncc2c1-c1ccccc1OC2)N1CCN(Cc2ccc3c(c2)OCO3)CC1,active: 23.1 µM,–

# Not a retest: entries from further up.
SMILES,Potency,"activity change, negative = inhibition"
CCCC(=O)Nc1cc(OCC)c(NC(=O)NC2CCCCC2)cc1OCC,"inconclusive: 0.184 µM [activator, single point]",–
O=C1N[C@@H](Cc2c[nH]c3ccccc23)COC(=O)[C@H](Cc2ccc(F)cc2)C/C=C\C[C@@H]1CC(=O)N(CCO)Cc1ccccc1,active: 23.1 µM,–
O=C(CCS(=O)(=O)c1ccc(Br)cc1)NCc1ccco1,"inconclusive: 18.3 µM [activator, single point]",–
COc1ccc(S(=O)(=O)N2CN(Cc3ccco3)c3nc4ccccc4nc32)cc1,–,inactive: 3.7%
CC12CCC3c4ccc(O)cc4CCC3C1CC(O)C2O (centres undefined),"inconclusive: 29.1 µM [activator, single point]",–

# Remaining list, next part.

SMILES,Potency,"activity change, negative = inhibition"
COc1ccc2c(c1)c(CC(=O)Nc1ccc(C(C)=O)cc1)c(C)n2C(=O)c1ccc(Cl)cc1,active: 11.6 µM,–
c1ccc(N2CCN(c3nc(NCc4ccco4)c4ccccc4n3)CC2)cc1,"inconclusive: 29.1 µM [inhibitor, single point]",–
Cc1cc2c3c(c1)C(C)CC(C)(C)N3C(=O)C2=C(C#N)C#N (centres undefined),–,inactive: -10.8%
CCOc1cccc(CN2CCC(n3nccc3NC(=O)C3CC3)CC2)c1O,–,inactive: -3.96%
S=C(NCC1CCCO1)N1CCN(c2nc(-c3ccc(Cl)cc3)cs2)CC1 (centres undefined),active: 11.6 µM,–
Cc1ccc(C(=O)NCC(=O)NC2CCC(C)CC2)s1 (centres undefined),"inconclusive: 23.1 µM [activator, single point]",–
O=C(CCCCCN1C(=O)c2ccccc2C1=O)Oc1ccc2c3c(c(=O)oc2c1)CCC3,"inconclusive: 18.4 µM [activator, partial curve, poor fit]",–
Nc1c(C(=O)NCc2cccnc2)sc(=S)n1-c1ccccc1,"inconclusive: 5.17 µM [inhibitor, partial curve, poor fit]",–
CCc1cccc(C)c1NC(=O)C1CCCO1 (centres undefined),–,inactive: 2.61%
CCCc1n[nH]c2c1/C(=N\O)CCC2,"inconclusive: 7.31 µM [inhibitor, single point]",–
CC(C)(C)OC(=O)C[C@@H]1C/C=C\C[C@@H](CC(=O)NCCO)C(=O)NC[C@H](c2ccccc2)OC1=O,"inconclusive: 9.2 µM [inhibitor, partial curve]",–
CCCCNC(=O)CCn1c(=O)c2ccccc2n(Cc2ccc(Cl)cc2)c1=O,"inconclusive: 23.1 µM [inhibitor, single point]",–
O=C(Nc1ccc(-c2nc3ccccc3o2)c(O)c1)c1cc(-n2cnnc2)ccc1Cl,active: 20.6 µM,–
CCOC(=O)C1=C(C)NC(=O)NC1c1cc2c(cc1Br)OCO2 (centres undefined),–,inactive: 16.9%
O=C(CSc1nncn1-c1ccccc1)Nc1ccccc1F,"inconclusive: 32.6 µM [activator, partial curve, poor fit]",–
COc1ccc(Cn2c(SCc3cc(C)ccc3C)nc3cc(OC)c(OC)cc3c2=N)cc1,"inconclusive: 29.1 µM [inhibitor, single point]",–
CCOc1ccc(CN(C)CC(=O)Nc2ccccc2C(=O)NC2CC2)cc1,active: 14.6 µM,–
CCn1c(=S)sc2c(=O)n(CC(=O)Nc3cccc(Br)c3)c(C)nc21,"inconclusive: 9.2 µM [inhibitor, partial curve, poor fit]",–
CCCn1c(N)c(C(=O)CSc2nc(C)cs2)c(=O)n(C)c1=O,"inconclusive: 23.1 µM [inhibitor, single point]",–
CN1CCc2nc3ccccc3c(C(=O)OCC(=O)N(CCC#N)c3ccccc3)c2C1,"inconclusive: 18.3 µM [inhibitor, single point]",–
CC(=O)c1c(C)[nH]c(-c2ccccc2)c1C,–,inactive: 15.4%
CCCS(=O)(=O)N1CCCC(C(=O)NCCCN2CCN(c3cccc(Cl)c3)CC2)C1 (centres undefined),"inconclusive: 32.6 µM [inhibitor, partial curve, poor fit]",–
C=CCn1c(SCC(=O)Nc2ccc3c(c2)OCO3)nc2ccccc2c1=O,"inconclusive: 11.6 µM [inhibitor, partial curve, poor fit]",–

SMILES,Potency,"activity change, negative = inhibition"
C=CCN(c1ccccc1)S(=O)(=O)c1cccc(C(=O)N2CC(C)CC(C)C2)c1 (centres undefined),"inconclusive: 29.1 µM [activator, single point]",–
COc1cccc(CC(=O)OCC(=O)N(C)CC(=O)Nc2ccc(F)cc2)c1,"inconclusive: 1.83 µM [activator, full curve, poor fit]",–
Cc1ccc(Cc2nc(-c3ccncc3)no2)cc1,"inconclusive: 25.9 µM [inhibitor, single point]",–
CCN(CC(=O)Nc1c(C(=O)OC)[nH]c2ccccc12)c1ccc2c(c1)OCO2,"inconclusive: 6.51 µM [inhibitor, single point]",–
COc1ccc(S(=O)(=O)N2CCC(C(=O)N[C@@H](C)C(=O)NCc3ccncc3)CC2)cc1,–,inactive: 0.995%
Cc1cc(C)cc(S(=O)(=O)c2cnc3ccccc3n2)c1,–,inactive: 4.57%
CCCc1nn2c(=O)cc(CSCC(=O)Nc3nnc(C(C)C)s3)nc2s1,–,inactive: 14.2%
Cn1nc([N+](=O)[O-])c(C(C#N)c2ccccn2)c(Cl)c1=O (centres undefined),–,inactive: -17.7%
C/C(N)=C(/C#N)C(=O)COC(=O)c1oc2ccccc2c1COC(C)C,"inconclusive: 29.1 µM [inhibitor, single point]",–
COc1cc(NC(=O)[C@H](C)NC(=O)N2CCn3c2nc2ccccc23)cc(OC)c1,"inconclusive: 16.4 µM [inhibitor, single point]",–
CCN(CC)C(=O)CSc1nc(N)c(C#N)c(-c2cccs2)c1C#N,"inconclusive: 0.731 µM [inhibitor, partial curve, poor fit]",–
Cc1cccc(Cn2c(NCCO)nc3c2c(=O)n(C)c(=O)n3C)c1,"inconclusive: 4.61 µM [inhibitor, single point]",–
CC(=O)c1c(C)oc2ccc(NS(=O)(=O)c3ccccc3)cc12,"inconclusive: 25.9 µM [inhibitor, single point]",–
CCN(CC)S(=O)(=O)c1cccc(C(=O)Nc2ccccc2)c1,"inconclusive: 12.6 µM [inhibitor, partial curve, poor fit]",–
CCOc1ccc(S(=O)(=O)N2CCCCC2)cc1NC(=O)CN1C(=O)NC(C)(c2ccc(C)cc2)C1=O (centres undefined),"inconclusive: 23.1 µM [inhibitor, single point]",–
O=C(/C=C/c1ccccc1)OCC(=O)N1CCCC1,"inconclusive: 20.6 µM [activator, partial curve]",–
OCCCCNCc1cc(Br)ccc1OCc1ccccc1,–,inactive: -9.75%
COc1cc(C(=O)NCC(=O)NC(C)CCc2ccccc2)cc(OC)c1OC (centres undefined),–,inactive: 8.62%
Cn1cccc1/C=C1\SC(=O)N(c2ccc(O)cc2)C1=O,"inconclusive: 8.2 µM [activator, partial curve]",–
O=Cc1cn(-c2ccccc2)nc1-c1ccccc1,"inconclusive: 20.6 µM [activator, partial curve, poor fit]",–
Cc1ccccc1C(=O)Oc1ccc2ccc(O)cc2c1,"inconclusive: 11.6 µM [activator, partial curve]",–
Cn1c(COc2ccccc2)nnc1SCc1nc2ccccc2[nH]1,–,inactive: -14.5%
O=C(C1CCN(S(=O)(=O)c2ccc(F)cc2)CC1)N1CCOCC1,"inconclusive: 35.5 µM [inhibitor, single point]",–
